Where a chain is given by its changes, count along the chain named. No constants are given. Whether binding was seen depends on the method and setting. A result given as binding can be weak or reduced; the word gives no strength. Sequences can lack the tags named with a protein. For some of these results: In cells and extracts the contact can be indirect.
What was measured:
[1] = target: T1, MBP:Anillin (608–940) (human) (UniProt Q9NQW6); assay: pull-down; purified MBP- or GST-tagged anillin fragments (200 nM) as bait; lysates of transfected HEK-293 cells; 50 mM Tris pH7.6, 150 mM NaCl, 5 mM MgCl2, 0.5% Triton X-100, 1 mM DTT, 4°C; western blot for Myc; only the target purified
T1 sequence: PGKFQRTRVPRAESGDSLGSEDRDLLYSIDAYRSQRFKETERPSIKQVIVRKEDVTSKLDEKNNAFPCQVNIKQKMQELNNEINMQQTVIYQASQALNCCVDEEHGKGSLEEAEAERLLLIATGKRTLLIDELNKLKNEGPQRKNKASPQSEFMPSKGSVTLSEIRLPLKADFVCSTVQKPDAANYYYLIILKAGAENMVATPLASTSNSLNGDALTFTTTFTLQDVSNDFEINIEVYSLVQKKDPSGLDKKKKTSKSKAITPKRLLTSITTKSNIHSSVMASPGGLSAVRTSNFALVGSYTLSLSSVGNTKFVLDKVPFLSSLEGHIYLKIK

[2] = target: T2, GST:Anillin (608–940) (human) (UniProt Q9NQW6); assay: as above
T2 sequence: T1 sequence

[3] = target: T3, GST:Anillin (890–940) (human) (UniProt Q9NQW6); assay: as above
T3 sequence: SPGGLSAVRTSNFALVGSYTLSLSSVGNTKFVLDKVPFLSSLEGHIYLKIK

[4] = target: T4, MBP:Anillin (608–1087) (human) (UniProt Q9NQW6); assay: as above
T4 sequence: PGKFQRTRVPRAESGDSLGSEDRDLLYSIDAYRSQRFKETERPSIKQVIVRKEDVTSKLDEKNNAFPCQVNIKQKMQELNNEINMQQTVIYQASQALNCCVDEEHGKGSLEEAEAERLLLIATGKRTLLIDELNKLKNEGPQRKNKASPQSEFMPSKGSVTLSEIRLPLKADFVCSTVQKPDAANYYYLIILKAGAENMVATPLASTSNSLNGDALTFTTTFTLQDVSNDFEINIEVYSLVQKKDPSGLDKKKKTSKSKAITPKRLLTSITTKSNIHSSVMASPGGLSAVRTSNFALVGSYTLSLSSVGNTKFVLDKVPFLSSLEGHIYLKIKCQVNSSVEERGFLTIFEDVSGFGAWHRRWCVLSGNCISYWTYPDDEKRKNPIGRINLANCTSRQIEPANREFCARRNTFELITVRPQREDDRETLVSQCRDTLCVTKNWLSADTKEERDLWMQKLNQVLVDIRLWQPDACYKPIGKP

[5] = target: T5, MBP:Anillin (608–1087; AFAINA) (human) (UniProt Q9NQW6); assay: as above
T5 sequence: T4 sequence with D230A, E232A, E236A

[6] = target: T6, GST:Anillin (820–940) (human) (UniProt Q9NQW6); assay: as above
T6 sequence: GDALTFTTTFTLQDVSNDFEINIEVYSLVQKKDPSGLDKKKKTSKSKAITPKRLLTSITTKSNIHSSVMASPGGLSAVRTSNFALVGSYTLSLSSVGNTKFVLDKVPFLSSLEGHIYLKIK

[7] = target: T7, GST: Dm anillin (800–1100; AHD) (Drosophila) (UniProt Q9V4P1); assay: as above
T7 sequence: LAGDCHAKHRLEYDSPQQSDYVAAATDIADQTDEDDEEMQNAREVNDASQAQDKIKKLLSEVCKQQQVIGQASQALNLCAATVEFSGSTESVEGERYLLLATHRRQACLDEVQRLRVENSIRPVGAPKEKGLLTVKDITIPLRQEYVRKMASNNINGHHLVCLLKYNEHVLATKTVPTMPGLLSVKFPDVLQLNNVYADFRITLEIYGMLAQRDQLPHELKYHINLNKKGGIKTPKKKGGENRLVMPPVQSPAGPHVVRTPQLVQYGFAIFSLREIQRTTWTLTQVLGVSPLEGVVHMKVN

[8] = target: T8, MBP:Anillin (772–940) (human) (UniProt Q9NQW6); assay: as above
T8 sequence: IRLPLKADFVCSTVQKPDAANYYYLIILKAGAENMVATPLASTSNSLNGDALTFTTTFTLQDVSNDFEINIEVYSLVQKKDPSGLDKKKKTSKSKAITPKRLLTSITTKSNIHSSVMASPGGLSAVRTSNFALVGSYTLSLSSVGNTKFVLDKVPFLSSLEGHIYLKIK

[9] = target: T9, MBP:Anillin (671–772) (human) (UniProt Q9NQW6); assay: as above
T9 sequence: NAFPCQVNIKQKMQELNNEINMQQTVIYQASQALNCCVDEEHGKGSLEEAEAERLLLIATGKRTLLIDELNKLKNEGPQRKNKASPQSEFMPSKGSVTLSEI

[10] = target: T1, MBP:Anillin (608–940) (human); assay: pull-down; in vitro binding of purified recombinant proteins: cleaved Ect2 fragments (0.5 µg and 1.5 µg) in solution with 5 µg MBP:anillin (AHD) on beads, soluble MBP included; 150 µL of 50 mM Tris pH7.6, 150 mM NaCl, 5 mM MgCl2, 0.5% Triton X-100; room temperature 1 hour or 4°C 2 hours; Coomassie-stained gels; both purified

Substance | binding [1] | binding [2] | further results
Myc:Ect2 (1–227) (human) (domain or fragment) | no binding (tested: 200 nM) |  | 
Myc:Ect2 (1–420) (human) (domain or fragment) | no binding (tested: 200 nM) | no binding (tested: 200 nM) | 
Myc:Ect2 (1–883) (human) | binds | binds | 
Myc:Ect2 (421–883) (human) (domain or fragment) | binds | binds | binding [3]: binds; binding [4]: binds; binding [5]: binds; binding [6]: binds; binding [7]: binds weakly
recombinant, cleaved Ect2 fragment E4 (DH+PH domains) (human) (domain or fragment) |  |  | binding [10]: binds weakly

Continued, in another order:

binding [1] | binding [2] | Substance | further results
no binding (tested: 200 nM) |  | Myc:Ect2 (421–621) (human) (domain or fragment) | 
binds |  | Myc:Ect2 (421–774) (human) (domain or fragment) | 
binds |  | Myc:Ect2 (622–774) (human) (domain or fragment) | 
binds |  | Myc:Ect2 (622–883) (human) (domain or fragment) | binding [8]: binds; binding [9]: binds weakly
no binding (tested: 200 nM) |  | Myc:Ect2 (775–883) (human) (domain or fragment) | 
 | no binding (tested: 200 nM) | Myc:Pebble (370–853; C-term) (Drosophila) (domain or fragment) | binding [7]: no binding (tested: 200 nM)

Source: PMC3325936
